PubChem BioAssay AID1259254 | NCATS | 2017

- Screen: 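Gene knock-downs that lead to re-replication, shown by excess G2 DNA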 (primary screen)
- System: human HCT116 colorectal cancer cells
- Reagent: single siRNA against human genes
- Timing: 3 days
- Measured: 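Nuclei stained with Hoechst and imaged; cell-cycle phase assigned by DNA content; G2 share scaled per plate, non-targeting siRNA 0%, GMNN siRNA 100%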
- Direction: G2 robust z-score and G2 cells, % of GMNN control: higher = more G2 cells, more excess DNA replication
- Hit rule: 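An siRNA counts as active if its G2 robust z-score lies at least 5 MADs above the screen median; here such calls match roughly 38% of GMNN control or more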
Shown is an unselected part of about 59,000 reagents tested. About 1,550 of all reagents (2.6%) count as active. 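G2 share is only a proxy for re-replication; each gene was hit by three separate siRNAs, and active genes were retested.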 The numbers tell different reagents against one gene apart. Not all columns of the deposit are shown. Reagent sequences are not shown. Not stated in the record: the amount of reagent.

Depletion of LIM2 #1 came out at: G2 robust z-score -0.524; G2 cells, % of GMNN control -0.721; inactive.
With knock-down of LIM2 #2, the screen gave G2 robust z-score -0.818; G2 cells, % of GMNN control -2.79; inactive.
For LIM2 #3, the entry reads G2 robust z-score -0.548; G2 cells, % of GMNN control -0.892; inactive.
TRIM5 #1 gave G2 robust z-score -0.86; G2 cells, % of GMNN control -3.08; inactive.
Silencing of TRIM5 #2 resulted in: G2 robust z-score -1.05; G2 cells, % of GMNN control -4.41; inactive.
Against TRIM5 #3 the deposit lists G2 robust z-score 0.484; G2 cells, % of GMNN control 6.38; inactive.
TOLLIP #1 gave G2 robust z-score -0.549; G2 cells, % of GMNN control -0.894; inactive.
For TOLLIP #2 the deposit lists G2 robust z-score 0.856; G2 cells, % of GMNN control 8.99; inactive.
Against TOLLIP #3, the entry reads G2 robust z-score -0.18; G2 cells, % of GMNN control 1.7; inactive.
Silencing of LUZP2 #1 came out at: G2 robust z-score -1.04; G2 cells, % of GMNN control -4.33; inactive.
Knock-down of LUZP2 #2 resulted in: G2 robust z-score 2.73; G2 cells, % of GMNN control 22.2; inactive.
With knock-down of LUZP2 #3 the results were G2 robust z-score 1.02; G2 cells, % of GMNN control 10.2; inactive.
TRIP4 #1 gave G2 robust z-score -0.829; G2 cells, % of GMNN control -2.86; inactive.
Silencing of TRIP4 #2 resulted in: G2 robust z-score 1.27; G2 cells, % of GMNN control 11.9; inactive.
TRIP4 #3 showed G2 robust z-score 0.0897; G2 cells, % of GMNN control 3.6; inactive.
Depletion of FBLN7 #1 resulted in: G2 robust z-score -1.08; G2 cells, % of GMNN control -4.61; inactive.
For FBLN7 #2 the deposit lists G2 robust z-score -0.315; G2 cells, % of GMNN control 0.75; inactive.
For FBLN7 #3, the entry reads G2 robust z-score -0.149; G2 cells, % of GMNN control 1.92; inactive.
Knock-down of GRM1 #1 came out at: G2 robust z-score -0.512; G2 cells, % of GMNN control -0.638; inactive.
For GRM1 #2, the entry reads G2 robust z-score 1.85; G2 cells, % of GMNN control 16; inactive.
Knock-down of GRM1 #3 came out at: G2 robust z-score -0.628; G2 cells, % of GMNN control -1.45; inactive.
With knock-down of BTN3A2 #1, the record shows G2 robust z-score -0.242; G2 cells, % of GMNN control 1.26; inactive.
Against BTN3A2 #2, the values are G2 robust z-score -1.02; G2 cells, % of GMNN control -4.23; inactive.
Knock-down of BTN3A2 #3 gave: G2 robust z-score -0.105; G2 cells, % of GMNN control 2.23; inactive.
